Measured values from article PMC3968126.
No constants are given. Whether binding was seen depends on the method and setting. In cells and extracts the contact can be indirect. Some binding calls cover weakened binding; strength is not graded here. For some assays here: Sequences can lack the tags named with a protein. Blank lines part the entries; values can stand above or below the molecule they belong to.

Amino acid sequences for entries named in this document (tags omitted).
UniProt O43765: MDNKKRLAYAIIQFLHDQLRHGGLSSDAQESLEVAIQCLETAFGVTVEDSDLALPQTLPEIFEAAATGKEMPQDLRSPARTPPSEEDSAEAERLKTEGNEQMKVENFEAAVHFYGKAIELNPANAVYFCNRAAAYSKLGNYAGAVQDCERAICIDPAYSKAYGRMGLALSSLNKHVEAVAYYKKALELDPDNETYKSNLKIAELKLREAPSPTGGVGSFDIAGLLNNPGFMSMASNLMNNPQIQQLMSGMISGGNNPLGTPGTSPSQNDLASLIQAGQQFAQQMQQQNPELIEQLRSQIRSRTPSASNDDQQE
UniProt P11142: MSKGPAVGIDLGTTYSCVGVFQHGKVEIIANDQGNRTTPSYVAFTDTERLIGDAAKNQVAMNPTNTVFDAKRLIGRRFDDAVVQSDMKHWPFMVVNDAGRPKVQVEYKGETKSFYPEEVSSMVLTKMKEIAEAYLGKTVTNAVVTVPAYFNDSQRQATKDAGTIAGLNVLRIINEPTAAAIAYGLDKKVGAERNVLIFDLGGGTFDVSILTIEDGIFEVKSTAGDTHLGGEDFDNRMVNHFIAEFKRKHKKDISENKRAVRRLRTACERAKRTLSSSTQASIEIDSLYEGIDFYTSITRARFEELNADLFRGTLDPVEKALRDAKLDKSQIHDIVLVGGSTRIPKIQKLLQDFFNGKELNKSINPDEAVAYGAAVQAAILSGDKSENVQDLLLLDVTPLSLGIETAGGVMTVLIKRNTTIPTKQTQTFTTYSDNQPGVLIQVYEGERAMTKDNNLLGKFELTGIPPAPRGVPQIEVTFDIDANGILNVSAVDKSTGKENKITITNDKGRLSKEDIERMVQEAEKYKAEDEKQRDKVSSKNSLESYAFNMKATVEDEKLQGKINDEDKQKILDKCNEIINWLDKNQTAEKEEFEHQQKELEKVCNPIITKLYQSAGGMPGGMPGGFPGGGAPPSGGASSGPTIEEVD

Legend:
B14-3xFLAG (human) = molecular target: T1, B14-3xFLAG (human) (UniProt Q8TBM8); assay: co-IP; eluates of B14-3xFLAG immunopurification (0.1% digitonin, anti-FLAG M2 agarose, 3xFLAG peptide elution) immunoblotted
T1 sequence: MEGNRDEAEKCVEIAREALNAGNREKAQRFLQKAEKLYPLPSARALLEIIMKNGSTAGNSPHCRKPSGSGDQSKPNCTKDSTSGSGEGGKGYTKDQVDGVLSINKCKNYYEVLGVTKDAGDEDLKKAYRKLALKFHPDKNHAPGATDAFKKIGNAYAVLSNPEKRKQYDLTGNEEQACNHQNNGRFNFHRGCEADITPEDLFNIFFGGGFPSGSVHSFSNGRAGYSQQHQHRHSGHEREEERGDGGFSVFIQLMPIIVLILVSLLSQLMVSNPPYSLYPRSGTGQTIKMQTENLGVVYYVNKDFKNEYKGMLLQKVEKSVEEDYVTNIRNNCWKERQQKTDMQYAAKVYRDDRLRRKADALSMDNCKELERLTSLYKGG

[1] = molecular target: small glutamine-rich tetratricopeptide repeat-containing protein α (human (endogenous in 293 and 293T)) (UniProt O43765); assay: co-IP; endogenous SGTA immunoprecipitated from 293T or CV-1 lysate; 0.1% digitonin, 50 mM Tris, 150 mM NaCl, 1 mM EDTA; protein A agarose, washes without detergent

binding (B14-3xFLAG (human)): binds
Molecule: Hsc70 (from UniProt P11142 1-646)

binding [1]: no binding
B1: BAP31 (protein, UniProt P51572 1-246)
chain: MSLQWTAVATFLYAEVFVVLLLCIPFISPKRWQKIFKSRLVELLVSYGNTFFVVLIVILVLLVIDAVREIRKYDDVTEKVNLQNNPGAMEHFHMKLFRAQRNLYIAGFSLLLSFLLRRLVTLISQQATLLASNEAFKKQAESASEAAKKYMEENDQLKKGAAVDGGKLDVGNAEVKLEEENRSLKADLQKLKDELASTKQKLEKAENQVLAMRKQSEGLTKEYDRLLEEHAKLQAAVDGPMDKKEE
